Drawing on paper doi:10.1101/264788, this text covers binding for 13 molecules.

Chains of the proteins cited; added tags and fusions are not shown. Residues count along the entry.
UniProt P02545, residues 1-646: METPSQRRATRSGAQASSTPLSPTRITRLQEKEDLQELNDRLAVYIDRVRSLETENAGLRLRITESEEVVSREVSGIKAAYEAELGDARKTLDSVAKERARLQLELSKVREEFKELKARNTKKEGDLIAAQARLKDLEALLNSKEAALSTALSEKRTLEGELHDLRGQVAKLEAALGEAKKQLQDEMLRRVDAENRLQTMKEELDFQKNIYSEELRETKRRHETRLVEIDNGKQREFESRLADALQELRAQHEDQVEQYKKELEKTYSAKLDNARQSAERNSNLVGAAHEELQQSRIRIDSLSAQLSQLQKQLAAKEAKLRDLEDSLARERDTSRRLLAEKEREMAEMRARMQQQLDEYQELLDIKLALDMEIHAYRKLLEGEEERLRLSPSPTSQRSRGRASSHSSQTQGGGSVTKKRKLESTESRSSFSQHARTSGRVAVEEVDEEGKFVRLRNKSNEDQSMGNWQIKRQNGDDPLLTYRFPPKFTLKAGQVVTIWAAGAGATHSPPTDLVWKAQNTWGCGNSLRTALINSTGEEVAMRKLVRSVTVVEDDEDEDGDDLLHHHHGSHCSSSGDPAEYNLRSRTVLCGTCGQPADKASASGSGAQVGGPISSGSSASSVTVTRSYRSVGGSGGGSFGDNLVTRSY
UniProt Q8WYP5: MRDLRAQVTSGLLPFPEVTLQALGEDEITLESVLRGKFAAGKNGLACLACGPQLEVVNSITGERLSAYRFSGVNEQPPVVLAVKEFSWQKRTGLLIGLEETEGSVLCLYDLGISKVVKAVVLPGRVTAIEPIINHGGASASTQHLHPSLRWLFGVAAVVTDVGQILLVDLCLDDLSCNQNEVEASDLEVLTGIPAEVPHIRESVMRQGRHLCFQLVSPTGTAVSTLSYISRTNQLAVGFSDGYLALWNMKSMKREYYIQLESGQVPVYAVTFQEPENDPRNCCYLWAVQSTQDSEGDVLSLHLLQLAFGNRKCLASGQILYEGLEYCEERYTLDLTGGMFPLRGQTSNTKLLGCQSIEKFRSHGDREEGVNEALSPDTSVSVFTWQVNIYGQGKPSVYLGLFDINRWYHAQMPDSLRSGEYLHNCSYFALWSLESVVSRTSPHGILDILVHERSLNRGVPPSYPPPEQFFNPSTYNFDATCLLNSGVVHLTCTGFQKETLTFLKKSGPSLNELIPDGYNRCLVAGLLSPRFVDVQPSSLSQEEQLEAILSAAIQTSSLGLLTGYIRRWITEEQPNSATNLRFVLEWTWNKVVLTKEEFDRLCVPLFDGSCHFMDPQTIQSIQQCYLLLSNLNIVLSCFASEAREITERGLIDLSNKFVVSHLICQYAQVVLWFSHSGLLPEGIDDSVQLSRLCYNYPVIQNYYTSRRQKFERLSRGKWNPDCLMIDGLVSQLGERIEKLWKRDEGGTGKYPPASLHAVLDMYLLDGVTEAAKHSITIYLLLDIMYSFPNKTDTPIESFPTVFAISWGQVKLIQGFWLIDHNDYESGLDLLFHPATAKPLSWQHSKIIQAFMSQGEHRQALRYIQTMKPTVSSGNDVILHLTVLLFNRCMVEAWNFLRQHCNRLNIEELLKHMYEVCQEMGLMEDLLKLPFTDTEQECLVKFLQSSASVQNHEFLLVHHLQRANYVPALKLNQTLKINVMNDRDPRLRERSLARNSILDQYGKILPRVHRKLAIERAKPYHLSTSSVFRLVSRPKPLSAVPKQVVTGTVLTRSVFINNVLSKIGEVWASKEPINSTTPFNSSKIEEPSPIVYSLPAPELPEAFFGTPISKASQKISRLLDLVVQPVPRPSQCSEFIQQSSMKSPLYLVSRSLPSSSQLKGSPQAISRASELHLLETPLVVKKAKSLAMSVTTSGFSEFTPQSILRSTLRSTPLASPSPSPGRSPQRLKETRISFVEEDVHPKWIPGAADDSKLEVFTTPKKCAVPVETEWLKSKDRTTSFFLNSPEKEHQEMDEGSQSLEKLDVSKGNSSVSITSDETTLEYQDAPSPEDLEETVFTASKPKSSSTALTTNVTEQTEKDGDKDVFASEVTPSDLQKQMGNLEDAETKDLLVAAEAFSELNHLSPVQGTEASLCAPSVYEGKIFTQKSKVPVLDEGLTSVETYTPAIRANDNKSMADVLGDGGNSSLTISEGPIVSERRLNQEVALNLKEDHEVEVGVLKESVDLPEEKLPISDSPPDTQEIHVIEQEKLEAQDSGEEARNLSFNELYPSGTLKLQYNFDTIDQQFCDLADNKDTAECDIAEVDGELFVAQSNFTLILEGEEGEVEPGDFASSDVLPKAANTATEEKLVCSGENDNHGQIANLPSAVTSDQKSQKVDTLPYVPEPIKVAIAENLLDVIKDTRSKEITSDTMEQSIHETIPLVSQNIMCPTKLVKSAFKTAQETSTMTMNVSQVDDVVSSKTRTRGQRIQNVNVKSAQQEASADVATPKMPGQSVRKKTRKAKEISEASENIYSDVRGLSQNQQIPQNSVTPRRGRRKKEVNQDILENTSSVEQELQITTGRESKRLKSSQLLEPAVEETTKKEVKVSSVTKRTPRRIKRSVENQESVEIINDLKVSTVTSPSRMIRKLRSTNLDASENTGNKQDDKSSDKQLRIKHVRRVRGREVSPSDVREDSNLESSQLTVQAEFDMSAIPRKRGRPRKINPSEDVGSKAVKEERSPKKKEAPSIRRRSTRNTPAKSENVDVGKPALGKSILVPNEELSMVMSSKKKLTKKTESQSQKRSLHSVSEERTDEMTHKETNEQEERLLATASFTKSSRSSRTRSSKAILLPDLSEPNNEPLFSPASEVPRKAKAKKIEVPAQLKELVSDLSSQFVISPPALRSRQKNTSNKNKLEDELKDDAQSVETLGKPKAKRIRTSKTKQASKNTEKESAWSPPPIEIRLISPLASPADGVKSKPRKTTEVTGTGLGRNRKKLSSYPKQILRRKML
UniProt Q14974: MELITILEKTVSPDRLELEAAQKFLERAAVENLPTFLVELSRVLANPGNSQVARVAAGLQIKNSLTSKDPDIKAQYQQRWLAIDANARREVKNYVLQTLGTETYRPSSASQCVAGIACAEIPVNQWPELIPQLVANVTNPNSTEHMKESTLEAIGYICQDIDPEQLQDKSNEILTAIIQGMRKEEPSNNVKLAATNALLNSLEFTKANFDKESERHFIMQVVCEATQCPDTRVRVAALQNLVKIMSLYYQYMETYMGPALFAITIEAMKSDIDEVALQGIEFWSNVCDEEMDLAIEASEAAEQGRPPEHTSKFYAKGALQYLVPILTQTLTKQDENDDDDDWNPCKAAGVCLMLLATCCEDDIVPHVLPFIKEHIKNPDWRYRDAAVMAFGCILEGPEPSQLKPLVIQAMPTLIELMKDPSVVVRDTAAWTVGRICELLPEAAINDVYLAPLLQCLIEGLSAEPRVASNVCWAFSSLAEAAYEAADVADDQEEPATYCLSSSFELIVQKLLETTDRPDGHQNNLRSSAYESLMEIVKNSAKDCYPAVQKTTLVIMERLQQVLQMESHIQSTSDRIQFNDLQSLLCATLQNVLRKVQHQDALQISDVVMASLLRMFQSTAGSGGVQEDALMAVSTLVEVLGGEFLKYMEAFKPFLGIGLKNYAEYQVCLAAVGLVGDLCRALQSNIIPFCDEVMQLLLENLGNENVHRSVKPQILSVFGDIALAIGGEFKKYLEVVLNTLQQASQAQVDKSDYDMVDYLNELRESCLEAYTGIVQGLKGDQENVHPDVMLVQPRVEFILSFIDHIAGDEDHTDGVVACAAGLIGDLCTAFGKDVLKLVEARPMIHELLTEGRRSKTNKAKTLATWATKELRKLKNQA
UniProt Q96HA1: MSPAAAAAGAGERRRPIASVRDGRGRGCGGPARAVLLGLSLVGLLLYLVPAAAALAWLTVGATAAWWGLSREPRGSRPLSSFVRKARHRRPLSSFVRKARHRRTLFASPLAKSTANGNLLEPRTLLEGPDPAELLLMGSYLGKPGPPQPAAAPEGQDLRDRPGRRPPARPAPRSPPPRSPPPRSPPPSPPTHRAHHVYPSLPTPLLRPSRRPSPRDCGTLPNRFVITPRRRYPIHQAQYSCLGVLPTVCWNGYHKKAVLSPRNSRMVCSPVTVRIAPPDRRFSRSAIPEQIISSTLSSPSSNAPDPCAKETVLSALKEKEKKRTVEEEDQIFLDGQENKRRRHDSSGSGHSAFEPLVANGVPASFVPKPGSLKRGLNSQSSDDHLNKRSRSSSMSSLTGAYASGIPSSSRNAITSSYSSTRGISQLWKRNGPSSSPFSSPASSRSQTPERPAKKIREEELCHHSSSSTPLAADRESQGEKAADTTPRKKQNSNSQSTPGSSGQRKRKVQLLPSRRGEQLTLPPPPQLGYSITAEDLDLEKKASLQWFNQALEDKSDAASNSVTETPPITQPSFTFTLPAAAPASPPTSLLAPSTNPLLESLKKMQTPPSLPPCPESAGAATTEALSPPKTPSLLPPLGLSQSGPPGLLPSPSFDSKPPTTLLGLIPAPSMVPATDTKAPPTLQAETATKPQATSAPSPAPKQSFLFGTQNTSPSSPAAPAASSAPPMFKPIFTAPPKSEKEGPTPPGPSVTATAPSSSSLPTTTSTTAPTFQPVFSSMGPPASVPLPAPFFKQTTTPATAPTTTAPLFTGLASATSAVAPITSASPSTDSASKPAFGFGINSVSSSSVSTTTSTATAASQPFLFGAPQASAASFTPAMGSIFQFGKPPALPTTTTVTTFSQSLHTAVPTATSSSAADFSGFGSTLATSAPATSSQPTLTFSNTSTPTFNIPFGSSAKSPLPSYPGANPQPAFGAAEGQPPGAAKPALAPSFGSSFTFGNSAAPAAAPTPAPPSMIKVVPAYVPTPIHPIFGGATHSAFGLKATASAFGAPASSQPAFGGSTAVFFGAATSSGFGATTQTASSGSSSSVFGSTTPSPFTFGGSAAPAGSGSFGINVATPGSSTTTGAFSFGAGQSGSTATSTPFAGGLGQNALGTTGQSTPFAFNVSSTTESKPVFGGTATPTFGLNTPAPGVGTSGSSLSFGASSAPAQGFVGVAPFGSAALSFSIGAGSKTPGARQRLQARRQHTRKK
UniProt P49790: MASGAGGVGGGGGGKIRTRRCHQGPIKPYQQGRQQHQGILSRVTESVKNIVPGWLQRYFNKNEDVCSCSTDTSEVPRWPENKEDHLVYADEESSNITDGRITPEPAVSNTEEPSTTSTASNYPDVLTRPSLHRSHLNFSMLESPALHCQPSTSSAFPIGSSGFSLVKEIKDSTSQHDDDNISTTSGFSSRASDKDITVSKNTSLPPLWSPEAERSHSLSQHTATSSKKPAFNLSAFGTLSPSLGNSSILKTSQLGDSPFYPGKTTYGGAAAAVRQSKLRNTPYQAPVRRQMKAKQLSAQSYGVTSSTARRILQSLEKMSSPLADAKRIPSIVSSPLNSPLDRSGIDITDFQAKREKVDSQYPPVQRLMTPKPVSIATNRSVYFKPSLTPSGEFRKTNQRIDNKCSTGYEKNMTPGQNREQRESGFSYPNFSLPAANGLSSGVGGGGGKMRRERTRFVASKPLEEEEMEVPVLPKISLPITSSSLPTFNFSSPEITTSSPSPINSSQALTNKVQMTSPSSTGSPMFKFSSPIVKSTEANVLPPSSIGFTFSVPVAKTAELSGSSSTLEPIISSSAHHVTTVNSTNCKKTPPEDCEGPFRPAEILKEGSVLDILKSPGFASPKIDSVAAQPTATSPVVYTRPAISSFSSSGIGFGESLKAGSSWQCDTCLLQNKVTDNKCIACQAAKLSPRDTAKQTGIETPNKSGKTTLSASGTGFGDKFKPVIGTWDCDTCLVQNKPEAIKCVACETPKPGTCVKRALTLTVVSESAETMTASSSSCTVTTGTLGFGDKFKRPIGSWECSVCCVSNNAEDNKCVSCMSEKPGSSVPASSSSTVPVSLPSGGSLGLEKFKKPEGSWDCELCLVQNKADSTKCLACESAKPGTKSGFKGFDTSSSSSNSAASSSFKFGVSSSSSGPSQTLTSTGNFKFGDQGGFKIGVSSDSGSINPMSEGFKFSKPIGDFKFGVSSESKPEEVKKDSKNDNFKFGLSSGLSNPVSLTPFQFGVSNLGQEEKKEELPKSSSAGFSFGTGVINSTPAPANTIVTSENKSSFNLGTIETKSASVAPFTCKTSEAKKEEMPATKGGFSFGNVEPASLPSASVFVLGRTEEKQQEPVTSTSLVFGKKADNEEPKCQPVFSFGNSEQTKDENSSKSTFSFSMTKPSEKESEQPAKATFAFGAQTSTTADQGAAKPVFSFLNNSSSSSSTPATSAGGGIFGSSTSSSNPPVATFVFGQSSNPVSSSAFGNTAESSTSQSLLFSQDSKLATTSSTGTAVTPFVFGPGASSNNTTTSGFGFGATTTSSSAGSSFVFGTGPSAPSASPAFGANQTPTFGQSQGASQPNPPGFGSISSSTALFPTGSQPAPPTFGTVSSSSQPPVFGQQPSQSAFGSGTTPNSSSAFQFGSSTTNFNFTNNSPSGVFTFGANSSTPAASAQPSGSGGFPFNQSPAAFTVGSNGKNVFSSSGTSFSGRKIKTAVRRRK

B1: Nuclear pore complex protein Nup155 (protein, UniProt O75694 1-1391)
chain: MPSSLLGAAMPASTSAAALQEALENAGRLIDRQLQEDRMYPDLSELLMVSAPNNPTVSGMSDMDYPLQGPGLLSVPNLPEISSIRRVPLPPELVEQFGHMQCNCMMGVFPPISRAWLTIDSDIFMWNYEDGGDLAYFDGLSETILAVGLVKPKAGIFQPHVRHLLVLATPVDIVILGLSYANLQTGSGVLNDSLSGGMQLLPDPLYSLPTDNTYLLTITSTDNGRIFLAGKDGCLYEVAYQAEAGWFSQRCRKINHSKSSLSFLVPSLLQFTFSEDDPILQIAIDNSRNILYTRSEKGVIQVYDLGQDGQGMSRVASVSQNAIVSAAGNIARTIDRSVFKPIVQIAVIENSESLDCQLLAVTHAGVRLYFSTCPFRQPLARPNTLTLVHVRLPPGFSASSTVEKPSKVHRALYSKGILLMAASENEDNDILWCVNHDTFPFQKPMMETQMTAGVDGHSWALSAIDELKVDKIITPLNKDHIPITDSPVVVQQHMLPPKKFVLLSAQGSLMFHKLRPVDQLRHLLVSNVGGDGEEIERFFKLHQEDQACATCLILACSTAACDREVSAWATRAFFRYGGEAQMRFPTTLPPPSNVGPILGSPVYSSSPVPSGSPYPNPSFLGTPSHGIQPPAMSTPVCALGNPATQATNMSCVTGPEIVYSGKHNGICIYFSRIMGNIWDASLVVERIFKSGNREITAIESSVPCQLLESVLQELKGLQEFLDRNSQFAGGPLGNPNTTAKVQQRLIGFMRPENGNPQQMQQELQRKFHEAQLSEKISLQAIQQLVRKSYQALALWKLLCEHQFTIIVAELQKELQEQLKITTFKDLVIRDKELTGALIASLINCYIRDNAAVDGISLHLQDICPLLYSTDDAICSKANELLQRSRQVQNKTEKERMLRESLKEYQKISNQVDLSNVCAQYRQVRFYEGVVELSLTAAEKKDPQGLGLHFYKHGEPEEDIVGLQAFQERLNSYKCITDTLQELVNQSKAAPQSPSVPKKPGPPVLSSDPNMLSNEEAGHHFEQMLKLSQRSKDELFSIALYNWLIQVDLADKLLQVASPFLEPHLVRMAKVDQNRVRYMDLLWRYYEKNRSFSNAARVLSRLADMHSTEISLQQRLEYIARAILSAKSSTAISSIAADGEFLHELEEKMEVARIQLQIQETLQRQYSHHSSVQDAVSQLDSELMDITKLYGEFADPFKLAECKLAIIHCAGYSDPILVQTLWQDIIEKELSDSVTLSSSDRMHALSLKIVLLGKIYAGTPRFFPLDFIVQFLEQQVCTLNWDVGFVIQTMNEIGVPLPRLLEVYDQLFKSRDPFWNRMKKPLHLLDCIHVLLIRYVENPSQVLNCERRRFTNLCLDAVCGYLVELQSMSSSVAVQAITGNFKSLQAKLERLH
B2: Nuclear pore complex protein Nup107 (protein, UniProt P57740 1-925)
chain: MDRSGFGEISSPVIREAEVTRTARKQSAQKRVLLQASQDENFGNTTPRNQVIPRTPSSFRQPFTPTSRSLLRQPDISCILGTGGKSPRLTQSSGFFGNLSMVTNLDDSNWAAAFSSQRSGLFTNTEPHSITEDVTISAVMLREDDPGEAASMSMFSDFLQSFLKHSSSTVFDLVEEYENICGSQVNILSKIVSRATPGLQKFSKTASMLWLLQQEMVTWRLLASLYRDRIQSALEEESVFAVTAVNASEKTVVEALFQRDSLVRQSQLVVDWLESIAKDEIGEFSDNIEFYAKSVYWENTLHTLKQRQLTSYVGSVRPLVTELDPDAPIRQKMPLDDLDREDEVRLLKYLFTLIRAGMTEEAQRLCKRCGQAWRAATLEGWKLYHDPNVNGGTELEPVEGNPYRRIWKISCWRMAEDELFNRYERAIYAALSGNLKQLLPVCDTWEDTVWAYFRVMVDSLVEQEIQTSVATLDETEELPREYLGANWTLEKVFEELQATDKKRVLEENQEHYHIVQKFLILGDIDGLMDEFSKWLSKSRNNLPGHLLRFMTHLILFFRTLGLQTKEEVSIEVLKTYIQLLIREKHTNLIAFYTCHLPQDLAVAQYALFLESVTEFEQRHHCLELAKEADLDVATITKTVVENIRKKDNGEFSHHDLAPALDTGTTEEDRLKIDVIDWLVFDPAQRAEALKQGNAIMRKFLASKKHEAAKEVFVKIPQDSIAEIYNQCEEQGMESPLPAEDDNAIREHLCIRAYLEAHETFNEWFKHMNSVPQKPALIPQPTFTEKVAHEHKEKKYEMDFGIWKGHLDALTADVKEKMYNVLLFVDGGWMVDVREDAKEDHERTHQMVLLRKLCLPMLCFLLHTILHSTGQYQECLQLADMVSSERHKLYLVFSKEELRKLLQKLRESSLMLLDQGLDPLGYEIQL
B3: Nuclear pore complex protein Nup133 (protein, UniProt Q8WUM0 1-1156)
chain: MFPAAPSPRTPGTGSRRGPLAGLGPGSTPRTASRKGLPLGSAVSSPVLFSPVGRRSSLSSRGTPTRMFPHHSITESVNYDVKTFGSSLPVKVMEALTLAEVDDQLTINIDEGGWACLVCKEKLIIWKIALSPITKLSVCKELQLPPSDFHWSADLVALSYSSPSGEAHSTQAVAVMVATREGSIRYWPSLAGEDTYTEAFVDSGGDKTYSFLTAVQGGSFILSSSGSQLIRLIPESSGKIHQHILPQGQGMLSGIGRKVSSLFGILSPSSDLTLSSVLWDRERSSFYSLTSSNISKWELDDSSEKHAYSWDINRALKENITDAIWGSESNYEAIKEGVNIRYLDLKQNCDGLVILAAAWHSADNPCLIYYSLITIEDNGCQMSDAVTVEVTQYNPPFQSEDLILCQLTVPNFSNQTAYLYNESAVYVCSTGTGKFSLPQEKIVFNAQGDSVLGAGACGGVPIIFSRNSGLVSITSRENVSILAEDLEGSLASSVAGPNSESMIFETTTKNETIAQEDKIKLLKAAFLQYCRKDLGHAQMVVDELFSSHSDLDSDSELDRAVTQISVDLMDDYPASDPRWAESVPEEAPGFSNTSLIILHQLEDKMKAHSFLMDFIHQVGLFGRLGSFPVRGTPMATRLLLCEHAEKLSAAIVLKNHHSRLSDLVNTAILIALNKREYEIPSNLTPADVFFREVSQVDTICECLLEHEEQVLRDAPMDSIEWAEVVINVNNILKDMLQAASHYRQNRNSLYRREESLEKEPEYVPWTATSGPGGIRTVIIRQHEIVLKVAYPQADSNLRNIVTEQLVALIDCFLDGYVSQLKSVDKSSNRERYDNLEMEYLQKRSDLLSPLLSLGQYLWAASLAEKYCDFDILVQMCEQTDNQSRLQRYMTQFADQNFSDFLFRWYLEKGKRGKLLSQPISQHGQLANFLQAHEHLSWLHEINSQELEKAHATLLGLANMETRYFAKKKTLLGLSKLAALASDFSEDMLQEKIEEMAEQERFLLHQETLPEQLLAEKQLNLSAMPVLTAPQLIGLYICEENRRANEYDFKKALDLLEYIDEEEDININDLKLEILCKALQRDNWSSSDGKDDPIEVSKDSIFVKILQKLLKDGIQLSEYLPEVKDLLQADQLGSLKSNPYFEFVLKANYEYYVQGQI
B4: Nuclear pore complex protein Nup160 (protein, UniProt Q12769 1-1436)
chain: MLHLSAAPPAPPPEVTATARPCLCSVGRRGDGGKMAAAGALERSFVELSGAERERPRHFREFTVCSIGTANAVAGAVKYSESAGGFYYVESGKLFSVTRNRFIHWKTSGDTLELMEESLDINLLNNAIRLKFQNCSVLPGGVYVSETQNRVIILMLTNQTVHRLLLPHPSRMYRSELVVDSQMQSIFTDIGKVDFTDPCNYQLIPAVPGISPNSTASTAWLSSDGEALFALPCASGGIFVLKLPPYDIPGMVSVVELKQSSVMQRLLTGWMPTAIRGDQSPSDRPLSLAVHCVEHDAFIFALCQDHKLRMWSYKEQMCLMVADMLEYVPVKKDLRLTAGTGHKLRLAYSPTMGLYLGIYMHAPKRGQFCIFQLVSTESNRYSLDHISSLFTSQETLIDFALTSTDIWALWHDAENQTVVKYINFEHNVAGQWNPVFMQPLPEEEIVIRDDQDPREMYLQSLFTPGQFTNEALCKALQIFCRGTERNLDLSWSELKKEVTLAVENELQGSVTEYEFSQEEFRNLQQEFWCKFYACCLQYQEALSHPLALHLNPHTNMVCLLKKGYLSFLIPSSLVDHLYLLPYENLLTEDETTISDDVDIARDVICLIKCLRLIEESVTVDMSVIMEMSCYNLQSPEKAAEQILEDMITIDVENVMEDICSKLQEIRNPIHAIGLLIREMDYETEVEMEKGFNPAQPLNIRMNLTQLYGSNTAGYIVCRGVHKIASTRFLICRDLLILQQLLMRLGDAVIWGTGQLFQAQQDLLHRTAPLLLSYYLIKWGSECLATDVPLDTLESNLQHLSVLELTDSGALMANRFVSSPQTIVELFFQEVARKHIISHLFSQPKAPLSQTGLNWPEMITAITSYLLQLLWPSNPGCLFLECLMGNCQYVQLQDYIQLLHPWCQVNVGSCRFMLGRCYLVTGEGQKALECFCQAASEVGKEEFLDRLIRSEDGEIVSTPRLQYYDKVLRLLDVIGLPELVIQLATSAITEAGDDWKSQATLRTCIFKHHLDLGHNSQAYEALTQIPDSSRQLDCLRQLVVVLCERSQLQDLVEFPYVNLHNEVVGIIESRARAVDLMTHNYYELLYAFHIYRHNYRKAGTVMFEYGMRLGREVRTLRGLEKQGNCYLAALNCLRLIRPEYAWIVQPVSGAVYDRPGASPKRNHDGECTAAPTNRQIEILELEDLEKECSLARIRLTLAQHDPSAVAVAGSSSAEEMVTLLVQAGLFDTAISLCQTFKLPLTPVFEGLAFKCIKLQFGGEAAQAEAWAWLAANQLSSVITTKESSATDEAWRLLSTYLERYKVQNNLYHHCVINKLLSHGVPLPNWLINSYKKVDAAELLRLYLNYDLLEEAVDLVSEYVDAVLGKGHQYFGIEFPLSATAPMVWLPYSSIDQLLQALGENSANSHNIALSQKILDKLEDYQQKVDKATRDLLYRRTL

These are yes or no findings as the source states them, for the method shown. In cells and extracts the contact can be indirect. Here binding means that the protein was enriched with, or labelled near, the bait; the list need not be complete.

The assay has as its target Prelamin-A/C, MAC-tagged (human) (UniProt P02545). Nature of the assay: proximity labelling.
Regarding “importin subunit alpha IMA4 (from UniProt O00505 1-521)”, the binding entry was “binds”.
As to “importin subunit alpha IMA3 (from UniProt O00629 1-521)”, the binding entry was “binds”.
For the molecule ELYS (from UniProt Q8WYP5 1-2266), the binding result is listed as “binds”.
Turning to “importin subunit alpha IMA6 (from UniProt O15131 1-539)”, the binding entry was “binds”.
Take “nuclear envelope pore membrane protein POM 121C (from UniProt A8CG34 1-1229)”: the binding result is “binds”.
Take “importin subunit beta-1 (from UniProt Q14974 1-876) (other; other documents disagree on this pair)”: the binding result is “binds”.
As for NUP98 (from UniProt P52948 1-880), the binding result is “binds”.
As to “nuclear envelope pore membrane protein POM 121 (from UniProt Q96HA1 1-1249)”, the binding result is “binds”.
Turning to “Nuclear pore complex protein Nup153 (from UniProt P49790 1-1475)”, the binding result is “binds”.
On to B1, for which the binding result is recorded as “binds”.
Under B2 stands “binds”; under B3, “binds”; under B4, “binds”.
